# The list shows a part of the results.
# Columns and labels:
# Test in all cases: glycan array binding signal (z-score within array); higher = stronger binding
# Settings in all cases: glycan notation: IUPAC condensed, linker removed; mutation: D224N
# [1] = biological target: Fuc(a1-2)Gal
# Outline: (§1)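 The Consortium for Functional Glycomics database supplied 3228 glycan arrays, of which those lacking an available protein sequence were dropped. The binding signal, a within-array Z-score, was averaged across arrays of the same protein sequence and across linkers. Negative scores can be read as non-binding.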
# [2] = biological target: Fuc(a1-2)Gal(b1-3)GalNAc
# Outline: as §1
# [3] = biological target: Fuc(a1-2)Gal(b1-3)GalNAc(a1-3)[Fuc(a1-2)]Gal(b1-4)Glc
# Outline: as §1
# [4] = biological target: Fuc(a1-2)Gal(b1-3)GalNAc(a1-3)[Fuc(a1-2)]Gal(b1-4)GlcNAc
# Outline: as §1
# [5] = biological target: Fuc(a1-2)Gal(b1-3)GalNAc(b1-3)Gal
# Outline: as §1
# [6] = biological target: Fuc(a1-2)Gal(b1-3)GalNAc(b1-3)Gal(a1-4)Gal(b1-4)Glc
# Outline: as §1
# [7] = biological target: Fuc(a1-2)Gal(b1-3)GalNAc(b1-4)[Neu5Ac(a2-3)]Gal(b1-4)Glc
# Outline: as §1
# [8] = biological target: Fuc(a1-2)Gal(b1-3)GlcNAc
# Outline: as §1
# [9] = biological target: Fuc(a1-2)Gal(b1-3)GlcNAc(b1-2)Man(a1-3)[Fuc(a1-2)Gal(b1-3)GlcNAc(b1-2)Man(a1-6)]Man(b1-4)GlcNAc(b1-4)GlcNAc
# Outline: as §1
# [10] = biological target: Fuc(a1-2)Gal(b1-3)GlcNAc(b1-2)Man(a1-3)[Fuc(a1-2)Gal(b1-3)GlcNAc(b1-2)Man(a1-6)]Man(b1-4)GlcNAc(b1-4)[Fuc(a1-6)]GlcNAc
# Outline: as §1
# [11] = biological target: Fuc(a1-2)Gal(b1-3)GlcNAc(b1-3)Gal(b1-4)Glc
# Outline: as §1
# [12] = biological target: Fuc(a1-2)Gal(b1-3)GlcNAc(b1-3)GalNAc
# Outline: as §1
# [13] = biological target: Fuc(a1-2)Gal(b1-3)GlcNAc(b1-3)[Fuc(a1-2)Gal(b1-3)GlcNAc(b1-6)]GalNAc
# Outline: as §1
# [14] = biological target: Fuc(a1-2)Gal(b1-3)GlcNAc(b1-3)[Gal(b1-4)GlcNAc(b1-6)]Gal(b1-4)Glc
# Outline: as §1
# [15] = biological target: Fuc(a1-2)Gal(b1-3)GlcNAc(b1-3)[Neu5Ac(a2-6)Gal(b1-4)GlcNAc(b1-6)]Gal(b1-4)Glc
# Outline: as §1
# [16] = biological target: Fuc(a1-2)Gal(b1-3)GlcNAc6S
# Outline: as §1
# [17] = biological target: Fuc(a1-2)Gal(b1-3)[Fuc(a1-4)]GlcNAc
# Outline: as §1
# [18] = biological target: Fuc(a1-2)Gal(b1-3)[Fuc(a1-4)]GlcNAc(b1-2)Man(a1-3)[Fuc(a1-2)Gal(b1-3)[Fuc(a1-4)]GlcNAc(b1-2)Man(a1-3)]Man(b1-4)GlcNAc(b1-4)GlcNAc
# Outline: as §1
# [19] = biological target: Fuc(a1-2)Gal(b1-3)[Fuc(a1-4)]GlcNAc(b1-2)Man(a1-3)[Fuc(a1-2)Gal(b1-3)[Fuc(a1-4)]GlcNAc(b1-2)Man(a1-6)]Man(b1-4)GlcNAc(b1-4)[Fuc(a1-6)]GlcNAc(b1-4)[Fuc(a1-6)]GlcNAc
# Outline: as §1
# [20] = biological target: Fuc(a1-2)Gal(b1-3)[Fuc(a1-4)]GlcNAc(b1-3)[Fuc(a1-3)[Gal(b1-4)]GlcNAc(b1-6)]Gal(b1-4)Glc
# Outline: as §1
# [21] = biological target: Fuc(a1-2)Gal(b1-3)[Fuc(a1-4)]GlcNAc(b1-3)[Gal(b1-4)GlcNAc(b1-6)]Gal(b1-4)Glc
# Outline: as §1
# [22] = biological target: Fuc(a1-2)Gal(b1-4)Fuc(a1-3)]GlcNAc(b1-2)Man(a1-3)[Fuc(a1-2)Gal(b1-4)[Fuc(a1-3)]GlcNAc(b1-2)Man(a1-6)]Man(b1-4)GlcNAc(b1-4)GlcNAc
# Outline: as §1
# [23] = biological target: Fuc(a1-2)Gal(b1-4)Glc
# Outline: as §1
# [24] = biological target: Fuc(a1-2)Gal(b1-4)Glc6S
# Outline: as §1
# [25] = biological target: Fuc(a1-2)Gal(b1-4)GlcNAc
# Outline: as §1
# [26] = biological target: Fuc(a1-2)Gal(b1-4)GlcNAc(b1-2)Man
# Outline: as §1
# [27] = biological target: Fuc(a1-2)Gal(b1-4)GlcNAc(b1-2)Man(a1-3)[Fuc(a1-2)Gal(b1-4)GlcNAc(b1-2)Man(a1-6)]Man(b1-4)GlcNAc(b1-4)GlcNAc
# Outline: as §1
# [28] = biological target: Fuc(a1-2)Gal(b1-4)GlcNAc(b1-2)Man(a1-3)[Fuc(a1-2)Gal(b1-4)GlcNAc(b1-2)Man(a1-6)]Man(b1-4)GlcNAc(b1-4)[Fuc(a1-6)]GlcNAc
# Outline: as §1
# [29] = biological target: Fuc(a1-2)Gal(b1-4)GlcNAc(b1-2)[Fuc(a1-2)Gal(b1-4)GlcNAc(b1-4)]Man(a1-3)[Fuc(a1-2)Gal(b1-4)GlcNAc(b1-2)Man(a1-6)]Man(b1-4)GlcNAc(b1-4)GlcNAc
# Outline: as §1
# [30] = biological target: Fuc(a1-2)Gal(b1-4)GlcNAc(b1-3)Gal(b1-4)GlcNAc
# Outline: as §1
binder,measurement,setting,value
a L Fucosidase (Thermotoga maritima) (protein) MASMKPRYKPDWESLREHTVPKWFDKAKFGIFIHWGIYSVPGWATPTGELGKVPMDAWFFQNPYAEWYENSLRIKESPTWEYHVKTYGENFEYEKFADLFTAEKWDPQEWADLFKKAGAKYVIPTTKHHDGFCLWGTKYTDFNSVKRGPKRDLVGDLAKAVREAGLRFGVYYSGGLDWRFTTEPIRYPEDLSYIRPNTYEYADYAYKQVMELVDLYLPDVLWNNMGWPEKGKEDLKYLFAYYYNKHPEGSVNDRWGVPHWDFKTAEYHVNYPGDLPGYKWEFTRGIGLSFGYNRNEGPEHMLSVEQLVYTLVDVVSKGGNLLLNVGPKGDGTIPDLQKERLLGLGEWLRKYGDAIYGTSVWERCCAKTEDGTEIRFTRKCNRIFVIFLGIPTGEKIVIEDLNLSAGTVRHFLTGERLSFKNVGKNLEITVPKKLLETDSITLVLEAVEE,glycan array binding signal (z-score),[1],-0.246
same,glycan array binding signal (z-score),[2],-0.989
same,glycan array binding signal (z-score),[3],-0.746
same,glycan array binding signal (z-score),[4],0.486
same,glycan array binding signal (z-score),[5],-0.103
same,glycan array binding signal (z-score),[6],-0.864
same,glycan array binding signal (z-score),[7],0.019
same,glycan array binding signal (z-score),[8],-0.403
same,glycan array binding signal (z-score),[9],0.227
same,glycan array binding signal (z-score),[10],1.05
same,glycan array binding signal (z-score),[11],-0.202
same,glycan array binding signal (z-score),[12],-0.614
same,glycan array binding signal (z-score),[13],-0.055
same,glycan array binding signal (z-score),[14],0.414
same,glycan array binding signal (z-score),[15],-0.742
same,glycan array binding signal (z-score),[16],-0.396
same,glycan array binding signal (z-score),[17],-0.662
same,glycan array binding signal (z-score),[18],1.51
same,glycan array binding signal (z-score),[19],-0.82
same,glycan array binding signal (z-score),[20],-0.948
same,glycan array binding signal (z-score),[21],-0.754
same,glycan array binding signal (z-score),[22],0.876
same,glycan array binding signal (z-score),[23],-0.334
same,glycan array binding signal (z-score),[24],0.567
same,glycan array binding signal (z-score),[25],-0.205
same,glycan array binding signal (z-score),[26],-1.1
same,glycan array binding signal (z-score),[27],-0.138
same,glycan array binding signal (z-score),[28],0.028
same,glycan array binding signal (z-score),[29],0.08
same,glycan array binding signal (z-score),[30],-0.368

# Looked up one by one from above (2):
binder,measurement,setting,value
a L Fucosidase (Thermotoga maritima) (protein) MASMKPRYKPDWESLREHTVPKWFDKAKFGIFIHWGIYSVPGWATPTGELGKVPMDAWFFQNPYAEWYENSLRIKESPTWEYHVKTYGENFEYEKFADLFTAEKWDPQEWADLFKKAGAKYVIPTTKHHDGFCLWGTKYTDFNSVKRGPKRDLVGDLAKAVREAGLRFGVYYSGGLDWRFTTEPIRYPEDLSYIRPNTYEYADYAYKQVMELVDLYLPDVLWNNMGWPEKGKEDLKYLFAYYYNKHPEGSVNDRWGVPHWDFKTAEYHVNYPGDLPGYKWEFTRGIGLSFGYNRNEGPEHMLSVEQLVYTLVDVVSKGGNLLLNVGPKGDGTIPDLQKERLLGLGEWLRKYGDAIYGTSVWERCCAKTEDGTEIRFTRKCNRIFVIFLGIPTGEKIVIEDLNLSAGTVRHFLTGERLSFKNVGKNLEITVPKKLLETDSITLVLEAVEE,glycan array binding signal (z-score),[27],-0.138
same,glycan array binding signal (z-score),[25],-0.205

# Source: the supplement of paper PMC8728848
